## Library screen at single concentrations

From ChEMBL document CHEMBL3988442, “University of Dundee, Small-Polar-MMV Screening Library” (2021).

Toxoplasma: 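Assay of Toxoplasma gondii numbers, read through their beta-galactosidase reporter with a colour substrate. Concentration: 10 µM. The record gives no direction; the compounds picked for IC50 retests had high values, so higher reads as fewer parasites. Size under these conditions: about 67,000 compounds, about 260 of them at 50% or above in at least one test.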
T. brucei: 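Whole-parasite assay of Trypanosoma brucei over 72 hours; the read-out is not stated. Tested at 30 µM. Direction is inferred from retests: higher values go with stronger inhibition. Values scatter widely below zero; nearly all retest evidence comes from the higher of the two concentrations used. Of about 64,000 compounds tested this way, about 940 (1.5%) reached 50% or more in at least one test.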

The filed quantity is “Percent Effect” (%). The controls that fix the scale are not given in the record; negative values are as filed. Compounds were drawn at random from those tested, without regard to their results. A dash means the value is not listed here; it may have been measured.

SMILES	Toxoplasma	T. brucei
CCOCC(=O)N1Cc2nnn(C)c2C(COCc2ccccn2)C1.O=C(O)C(F)(F)F (centres unmarked)	-5.28%	-43.28%
CC(C)n1ccc(C(=O)N2CCCC(n3cncn3)C2)n1 (centres unmarked)	15.83%	3.997%
COCCn1c(CN2CCCO2)cnc1S(=O)(=O)CC1CCCCC1	3.394%	-3.193%
Cc1cc(N(Cc2cccnc2)C2CC2)n2nc(C(F)(F)F)nc2n1	-17.82%	-59.91%
O=C(c1cscn1)N1CCC2(CCN(S(=O)(=O)c3ccccc3)C2)C1 (centres unmarked)	7.675%	-30.56%
CCCS(=O)(=O)N1Cc2nccn2CC(CN2CCCC2)C1.O=C(O)C(F)(F)F (centres unmarked)	4.211%	-49.31%
Cc1cnn(CC2CCCN2CC(=O)N(C)Cc2ccco2)c1 (centres unmarked)	-4.678%	-48.66%
CCc1nc(C(=O)N2CCCC2)nn1-c1c(Cl)cccc1Cl	4.371%	6.119%
CCCNC(=O)Nc1cc2c(cc1SC)OCCO2	-7.827%	10.83%
Cc1csc(N2CCN(C(=O)c3cc(Cl)c[nH]3)CC2)n1	11.47%	-59.11%
Cc1[nH]ncc1CCCNC(=O)Nc1ccc(S(C)(=O)=O)nc1	-0.3793%	-113%
CN(Cc1ccc(OC(F)F)cc1)C(=O)CS(=O)(=O)c1ccc(Cl)cc1	4.732%	10.53%
Cc1nc(CC(=O)N2CCN(C)CC2c2ccccc2)cs1 (centres unmarked)	3.924%	-15.8%
Cc1nn(C)c(C)c1C(=O)NCc1cc(N(C)C)nc2ccccc12	3.965%	-45.39%
CN(C)c1ncccc1CNC(=O)NCc1ccc(Cl)s1	-9.04%	-
CC(c1ccccc1)N(C)C(=O)CN1CCN(c2cnccn2)CC1 (centres unmarked)	-14.64%	-17.82%
O=C(NCCc1cccc(O)c1)NC1CCN(c2ccccc2)C1=O (centres unmarked)	-2.753%	11.14%
COc1cc(C)sc1C(=O)NCCC(=O)N(C)Cc1ccccc1	33.79%	10.12%
CCc1nc(C(=O)N2CCN(C)CC2C)nn1-c1ccccc1Cl (centres unmarked)	-0.6905%	-44.99%
O=C1Nc2ccccc2NC12CCN(c1cccc(C(F)(F)F)n1)CC2	3.169%	-22.69%
Cc1cnn(CC2CN(Cc3nnc(C4CC4)o3)CCO2)c1 (centres unmarked)	8.185%	-33.95%
c1cc(C2CCN(c3ncnc4c3CCNCC4)CC2)ccn1	11.33%	2.643%
Cc1cnc(N2CCC3(CC2)CC(NC(=O)N(C)C)CO3)nc1 (centres unmarked)	5.907%	-11.34%
COCc1nc(CN2CC(C)(c3ccccc3)CCC2=O)no1 (centres unmarked)	-0.7015%	-28.88%
COC(=O)CC(NC(=O)c1cc(OC)c2c(c1)OCCO2)c1cccs1 (centres unmarked)	-4.318%	2.584%
CCn1cc(CN(C)c2nc(C)c3ccc(S(C)(=O)=O)cc3n2)cn1	1.027%	-31.75%
Cc1noc(C)c1CN(C)C(=O)CN1CC(c2ccccc2)CC1=O (centres unmarked)	-3.68%	-15.03%
CC(=O)N[C@@H]1CN(c2nc(CO)cs2)C[C@H]1c1ccc(C)o1	-9.079%	-23.22%
COc1ccc(Cl)cc1S(=O)(=O)N(C)CC(N)=O	-5.468%	-19.48%
CN(C)S(=O)(=O)N1CCC2(COCc3cnc(-c4ccccc4)nc32)C1 (centres unmarked)	2.35%	-2.446%
CN(C)C(=O)c1cn2cc(-c3ccccc3Cl)n(CC3CC3)c(=O)c2n1	-32.79%	-4.981%
CC(C)(CNC(=O)c1ccco1)NC(=O)OC(C)(C)C	6.874%	-31.2%
Cl.Cl.c1cncc(OC[C@@H]2CCC[C@@]23CNCCO3)c1	-2.528%	-
Cc1ccc(CN(CCCn2ccnc2)Cc2c[nH]cn2)s1.O=C(O)CC(O)(CC(=O)O)C(=O)O	27.23%	1.137%
NC1CCN(C2CCN(c3ccc(-c4ccco4)cc3)CC2)CC1	4.255%	-49.5%
Cc1ccsc1CN(Cc1ncccc1C(=O)O)C1CC1	-4.365%	-3.136%
Fc1ccc2c(C3=CCN(Cc4nnc(C5CCC5)o4)CC3)c[nH]c2c1	6.577%	-7.492%
CC(C)CCNC(=O)C(c1cccc(F)c1)N(C)C (centres unmarked)	-22.14%	-17.53%
CCNC(=O)NC(=O)CN1CCCC1c1nc(C2CCCCC2)co1 (centres unmarked)	-3.733%	-3.414%
CCCc1nnc(C(=O)N(C)Cc2cnc3ccccn23)o1	-23.16%	-13.21%
Cc1cc(N(C)C)nc(N2CCn3c(C)nnc3C2)n1	-7.624%	-15.2%
O=C(Nc1ccc2c(ccn2CCN2CCOCC2)c1)c1ccccn1	12.03%	-17.48%
CC(C)(C)S(=O)(=O)CCNC(=O)c1ccc2cc[nH]c2c1	9.341%	101.8%
O=C(O)C(F)(F)F.[H][C@@]12CNC(=O)[C@H](C)[C@]1([H])CN(Cc1cccc(F)c1)C2	7.779%	-52.04%

For reference, 3 entries once more:

- Cc1cnn(CC2CN(Cc3nnc(C4CC4)o3)CCO2)c1 (centres unmarked) : Toxoplasma: 8.185%; T. brucei: -33.95%
- Cc1cnn(CC2CCCN2CC(=O)N(C)Cc2ccco2)c1 (centres unmarked) : Toxoplasma: -4.678%; T. brucei: -48.66%
- Cc1cc(N(C)C)nc(N2CCn3c(C)nnc3C2)n1 : Toxoplasma: -7.624%; T. brucei: -15.2%